PubChem BioAssay AID686937 – Drosophila RNAi Screening Center | 2013
Assay: 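Genes whose loss weakens secretory pathway function in fly cells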 (primary screen). Cell system: Drosophila S2 cells expressing secreted horseradish peroxidase. Knock-down reagent: long dsRNA against Drosophila genes. Duration: about 5.5 days (5 days dsRNA, then 12 h reporter induction). Treatment: reporter expression induced after 5 days of dsRNA, read 12 h later; inducer not stated. Measurement: 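After 5 days of dsRNA and 12 h of reporter induction, medium peroxidase read by chemiluminescence and scored as per-plate z-score; higher values mean more reporter released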. Direction: z-score: higher = more reporter secreted into medium.
The deposit covers about 23,000 reagents; this is an unselected part of those that have a named target and a result. 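Reduced-secretion tags in replicate 1 do not always agree with the z-scores; no criterion for assigning the tags was given.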 Reagents against one gene are numbered here. Names joined by + are all predicted targets of the reagent. Further read-outs or replicates are left out here. Not given: the amount of reagent.

CG15343 (GeneID 31765) scored z-score, replicate 1 = 0.37.
Tap42 (GeneID 326166) showed z-score, replicate 1 = 0.53.
Against CG30010 (GeneID 246389), the entry reads z-score, replicate 1 = -0.16.
Depletion of CG33919 (GeneID 3772720) came out at: z-score, replicate 1 = 0.32.
Against LRP1 (GeneID 35799), the entry reads z-score, replicate 1 = 0.05.
For gdl-ORF39 + gdl, the entry reads z-score, replicate 1 = 0.3.
Depletion of CG43127 (GeneID 8673982) came out at: z-score, replicate 1 = 0.27.
With knock-down of CG8034 (GeneID 32924), the record shows z-score, replicate 1 = -0.09.
ND-20L (GeneID 43477) scored z-score, replicate 1 = 0.17.
Against CG10514 (GeneID 43052), the entry reads z-score, replicate 1 = 0.11.
For Cka (GeneID 34096) #1, the values are z-score, replicate 1 = 0.34.
Cka (GeneID 34096) #2 gave z-score, replicate 1 = -2.07; phenotype, replicate 1 = reduced secretion.
For Cubn2 (GeneID 39334) #1 the deposit lists z-score, replicate 1 = 0.08.
Knock-down of Cubn2 (GeneID 39334) #2 resulted in: z-score, replicate 1 = 0.33.
Against CG14958 (GeneID 38387), the values are z-score, replicate 1 = -0.25.
Silencing of dally (GeneID 39013) #1 came out at: z-score, replicate 1 = 0.23.
dally (GeneID 39013) #2 gave z-score, replicate 1 = 0.37.
Against tef (GeneID 36920) #1, the values are z-score, replicate 1 = -0.09.
For tef (GeneID 36920) #2, the values are z-score, replicate 1 = 0.17.
Against AdipoR (GeneID 42656), the entry reads z-score, replicate 1 = 0.21.
After knock-down of CG10486 (GeneID 38664), the record shows z-score, replicate 1 = 0.58.
CG7377 (GeneID 2768978) gave z-score, replicate 1 = 0.3.
CG2656 (GeneID 40857) gave z-score, replicate 1 = 0.03.
hpo (GeneID 37247) gave z-score, replicate 1 = 0.25.
Against CG3803 (GeneID 37809) the deposit lists z-score, replicate 1 = 0.01.
CG15056 (GeneID 32824) scored z-score, replicate 1 = -0.03.
With knock-down of ich (GeneID 41069) #1, the record shows z-score, replicate 1 = -0.24.
Depletion of ich (GeneID 41069) #2 came out at: z-score, replicate 1 = 0.23.
or (GeneID 43943) gave z-score, replicate 1 = 0.19.
Knock-down of CG3769 (GeneID 34262) gave: z-score, replicate 1 = 0.11.
primo-2 + primo-1 gave z-score, replicate 1 = 0.43.
For BBS4 (GeneID 36167) the deposit lists z-score, replicate 1 = 0.81.
CG40198 (GeneID 3354922) showed z-score, replicate 1 = -0.41.
With knock-down of CG30048 (GeneID 246415), the screen gave z-score, replicate 1 = -0.21.
With knock-down of Gen (GeneID 38594) the results were z-score, replicate 1 = 0.09.
CG14693 (GeneID 41299) showed z-score, replicate 1 = 0.59.
Against CG33454 (GeneID 2768850), the entry reads z-score, replicate 1 = 0.02.
CG4839 (GeneID 34348) #1 gave z-score, replicate 1 = 0.53.
Against CG4839 (GeneID 34348) #2, the values are z-score, replicate 1 = 0.15.
Knock-down of Brca2 (GeneID 37916) #1 resulted in: z-score, replicate 1 = 0.6.
Knock-down of Brca2 (GeneID 37916) #2 came out at: z-score, replicate 1 = 0.4.
CG3819 (GeneID 40069) gave z-score, replicate 1 = 0.25.
Depletion of CG43064 (GeneID 12798207) resulted in: z-score, replicate 1 = 0.51.
Knock-down of CG3349 (GeneID 39623) gave: z-score, replicate 1 = 0.33.
CG12231 (GeneID 32942) showed z-score, replicate 1 = -0.21.
For CG6420 (GeneID 43218) the deposit lists z-score, replicate 1 = 0.48.
With knock-down of Mtap (GeneID 36955) the results were z-score, replicate 1 = -0.26.
Acp1 (GeneID 34052) scored z-score, replicate 1 = 0.3.
After knock-down of ctp (GeneID 31405), the screen gave z-score, replicate 1 = -0.28.
CG3597 (GeneID 33420) gave z-score, replicate 1 = 0.23.
Silencing of CG33235 (GeneID 2768871) came out at: z-score, replicate 1 = 0.35.

Copied from the entries so far (8 entries):
Cka (GeneID 34096) #2: z-score, replicate 1 = -2.07; phenotype, replicate 1 = reduced secretion
Cubn2 (GeneID 39334) #1: z-score, replicate 1 = 0.08
Cubn2 (GeneID 39334) #2: z-score, replicate 1 = 0.33
CG14958 (GeneID 38387): z-score, replicate 1 = -0.25
dally (GeneID 39013) #1: z-score, replicate 1 = 0.23
dally (GeneID 39013) #2: z-score, replicate 1 = 0.37
tef (GeneID 36920) #1: z-score, replicate 1 = -0.09
tef (GeneID 36920) #2: z-score, replicate 1 = 0.17
